From paper PMC8522639
These are yes or no findings as the source states them, for the method shown. In cells and extracts the contact can be indirect. Some entries that bind do so weakly or less than the wild type. Sequences can lack the tags named with a protein.

T1: HA-DRC1 (UniProt Q3USS3)
T1 sequence: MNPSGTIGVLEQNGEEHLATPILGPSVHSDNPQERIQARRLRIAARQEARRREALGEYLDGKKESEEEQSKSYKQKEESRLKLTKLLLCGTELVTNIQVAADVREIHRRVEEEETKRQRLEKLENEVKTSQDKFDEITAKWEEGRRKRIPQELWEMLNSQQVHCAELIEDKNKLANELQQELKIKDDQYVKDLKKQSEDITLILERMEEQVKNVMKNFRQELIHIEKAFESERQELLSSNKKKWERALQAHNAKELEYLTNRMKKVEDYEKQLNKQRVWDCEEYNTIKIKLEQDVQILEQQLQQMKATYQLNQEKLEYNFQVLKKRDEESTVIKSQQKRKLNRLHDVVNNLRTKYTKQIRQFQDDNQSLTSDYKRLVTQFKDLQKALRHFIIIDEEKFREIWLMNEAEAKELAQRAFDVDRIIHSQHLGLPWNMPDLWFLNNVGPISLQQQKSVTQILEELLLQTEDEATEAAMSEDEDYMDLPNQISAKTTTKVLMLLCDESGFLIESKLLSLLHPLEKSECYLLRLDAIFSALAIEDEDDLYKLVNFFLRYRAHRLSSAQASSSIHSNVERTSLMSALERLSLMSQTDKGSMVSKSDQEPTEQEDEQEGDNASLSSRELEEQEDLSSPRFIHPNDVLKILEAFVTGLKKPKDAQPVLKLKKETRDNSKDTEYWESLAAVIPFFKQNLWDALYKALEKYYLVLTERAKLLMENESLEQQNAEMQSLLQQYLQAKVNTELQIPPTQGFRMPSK

B1: Flag-DRC3 (protein, UniProt Q9D5E4 1-523)
chain: MSRPYDSMEPKVMDDDMLKAAVGEQGPQEEAGQLAKQEGILFKDVLSLQLDFQNILRIDNLWQFENLKKLQLNNNIIERIEGLTNLIHLVWLDLSFNNIEAIEGLDTLVNLEDLSLSNNRISKVDSLDALVKLQVLSLGNNQISNMMNIIYLRRFPCLRTLSLAGNPVSEAEEYKMFIYAYLSDLVYLDFRRVDEQMREMAKMKHQYSIDELKHREAQLQMKLEEEQAKQEKLEEHKMAFVEHLNGPFLFDSMYSEDVEGNKLSYLPGVRELLEAYKDKFVIICLNIFEYGLNQQEKRKVELDTFNECIQEAILENQDQGKLKVAKFEEKHLLNLNAIREETDLSNIEKKLTECTESIGELFNTLMILEMQLVEQLEETINIFERNITDLVGLFIENVQSLIAQCRDLENHHHEKLLEIAINTLEKILKGEMDEDLPDDVRALFVDKDTIVNAVGASHDIHLLKIDNREDELVTGINSWCAHLVDKIHKDEIMRNRKRVKEINQFVDHMQSELDNLECGDIID
B2: Flag-DRC2 (protein, UniProt Q8VHI7 1-493)
chain: MSKKGKKPKLPKAPLSEEDQLLIFQQKMLADEEAAKKKERLLTQFLKDKLAKEEHNSALNLNKINTQWRTILREVKTRELHQDIEILSQTFERVVDCKDSVIKSLAKDLTEAEEQYAHALRSHLHNIDQLLTLQRRRLGLLEENYNMELEVLTKEFETERKLIIDHHEKEMHYLQDVFMAMEQNYIDSEYESKLEFQSMWDDLKNKNLEEKHFLRLQLENIVEDLWRRFQDALKNYTDATEDRKIAFEYLKVKDEKSSKEIETQMKKIQKLQETIGILKGKIVAHSREGEWQNQCIRNNKELVHVQLRKLKVQRTQARTLSQENLVKLTLESNATLKALKKVVEKGEKILKLAEICRKFETEEEKVLPFYSSVLTPEEQEEAKLQNPEDITEDLAKIMMDYAGMENFWKRYNKVKLEVLSLQHRRLQLLDISSKLREMLKQYLDGISVSDEVLSHLNPLFVVNHRSNLPQLPPPSAQPVYNVIEAAHIASHIL
B3: Flag-DRC4 (protein, UniProt Q60779 1-478)
chain: MAPKKKGKKGKAKGTAIVDGVAPEDMTKEQVEEHVARIREELDREREERNYFQLERDKIHTFWEITRRQLEEKKAELRNKDREMEEAEERHQVEIKVYKQKVKHLLYEHQNNLAEVKAEGTVVMKLAQKEHRTQEGALRKDMRVLKVELKEQELANEVVIKNLCLKQAEEITKMRNDFERQVREIEAKYDKKMKMLRDELDLRRKTEIHEVEERKNGQISTLMQRHEEAFTDIKNYYNDITLNNLALINSLKEQMEDMRKKEEHMEREMAEVTLQNRRLADPLQKAKDEMNEMQKRLGNHERDKQILVCTKARLKVAERELKDLKWEHEVLEQRFIKVQQEREELYRKFADAIQEVQQKTGFKNLLLERKLQALNAAVEKREVQFNEVLAASNLDPTALTLVSRKLEDVLESKNTTIKDLQYELARVCKAHNDLLRTYEAKLLAFGIPLDNVGFKPLETAVIGQTLGQGPAGLVGAPT
B4: Flag-DRC5 (protein, UniProt A6H639 1-498)
chain: MQETPSVPSNSSSHSQSVLTIQRQVSALGSSSTGPTSLKTSSTPTPGQLKTKVPNVRRMRRIISEDAEWSLAIVPLLTELCIQHIVKNFQNNPILKQLPLEHQKKVLSNLPPELPLTVTANLIDDENYWHRCCIKRWSVCHVSRHGGSWKRMFFERHLENLLKLFIPGTTDPNVILDLLPLCRNYVRRIHVDQFLPPVRMPTPLQGEEQSDSGSEGEGSEPEKDHYQLQTLVGGLKHLEELDLVYGVKDCGMNFEWNLFLFTYRDCYSLAATIKACHTLKIFKLTRSKVDDDKARILIRSLLDHPALEELDLSHNLIGDRGARAAAKLLSHSRLRVLNLANNQLQAPGAQSLAHALAHNTNLVFLNLRLNCIEDEGGQAIAHALETNKCLSVLHLGGNKLSEPTATLLSQMLTVNTTLVSLNLSCNHIGQDGGKQLLEGISDNKTILEFDLRLSDVSQESEYLIGQVLHANREAARQRTLNPGHFSSPTNNCTENSVV

molecular target: T1, HA-DRC1; test: co-IP; HA-DRC1 coexpressed with one Flag-DRC component in HEK293T cells; RIPA lysate, anti-HA-tag antibody overnight at 4°C, Protein G magnetic beads, washed thrice with RIPA buffer; blot for Flag

| binding | Binder |
| --- | --- |
| binds | B1 |
| binds | B2 |
| binds | B3 |
| binds | B4 |
